Assay results: publication PMC4245945
These are yes or no findings as the source states them, for the method shown.

The chains behind the UniProt entries cited, without tags or fusion partners.
UniProt P0A7I0: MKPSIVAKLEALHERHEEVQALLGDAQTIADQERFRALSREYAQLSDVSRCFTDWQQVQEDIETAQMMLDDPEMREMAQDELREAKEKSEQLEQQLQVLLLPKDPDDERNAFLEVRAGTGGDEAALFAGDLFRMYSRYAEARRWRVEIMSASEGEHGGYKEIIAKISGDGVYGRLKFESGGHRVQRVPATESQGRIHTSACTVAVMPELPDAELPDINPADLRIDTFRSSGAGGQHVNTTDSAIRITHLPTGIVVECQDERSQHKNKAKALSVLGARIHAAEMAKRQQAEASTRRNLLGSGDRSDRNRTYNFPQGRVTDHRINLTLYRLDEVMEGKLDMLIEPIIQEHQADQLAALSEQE

Molecular target: T1, ArfA-ΔC17 (E. coli) (UniProt P36675)
T1 sequence: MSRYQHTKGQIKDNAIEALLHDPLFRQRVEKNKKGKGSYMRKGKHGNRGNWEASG
Test: ultrafiltration assay (centrifugal ultrafiltration, 100 kDa; SDS-PAGE of the ribosome fraction); 70S ribosomes (20 pmol) stalled with tRNAfMet and mRNA + 0 or mRNA + 21, mixed with ArfA (20 pmol) and release factor (RF2 0-50 pmol); 80 mM Tris-HCl pH 7.5, 7 mM MgCl2, 150 mM NH4Cl, 2.5 mM dithiothreitol, 2 mM spermidine; 37°C, 10 min; free factors removed, gel stained with Oriole; both purified

binding: no binding
Substance: RF1 (from UniProt P0A7I0 1-360)
